In EP0549002A1, “Method for the preparation of an antiseptic composition containing clindamycin-hydrochloride and polymyxin” (Hak, Barend Willem, priority 1991, dated 1993) one finds MIC data, which are given here for one molecule.

Converted amounts (≈) assume the structure as drawn.

In test [1] the test system is Mycoplasma hyorhinis type strain BTS-7. Kind of test: microbe, parasite or virus in culture. The settings on record: 120 h.
Test [2] has as its system Pasteurella haemolytica 3R188 and 6R132. Description: microbe, parasite or virus in culture. To be noted: Mannheimia haemolytica, 24 h, read-out: minimal inhibitory concentrations (MICs).

Consider `CCC[C@@H]1C[C@@H](C(=O)N[C@@H]([C@H]2O[C@H](SC)[C@H](O)[C@@H](O)[C@H]2O)[C@H](C)Cl)N(C)C1` [clindamycin, methyl-7-chloro-6,7,8-tri-desoxy-6-trans-(1-methyl-4-propyl-L-pyrrolidine-2-carboxamido)-1-thio-L-treo-α-D-galacto-octa-pyranoside], for which the MIC in test [1] is 1 µg/mL (≈ 2.35 µM); in test [2] it was more than 20 µg/mL.
